Tests used:
[1] = Pt standard curve (APE/TFPP), LOD, LOQ and recovery of unknowns
[2] = Limit of detection and quantification of copper-mediated depropargylation of PPE; details: 20 μM PPE, 100 μM DMAPPP, borate pH 8.5, 2 h, 25° C.
[3] = Quantification of cisplatin in protein-free serum (APE/TFPP); details: 400 μM TFPP, 20 μM APE, pH 7.8, 45° C., 1 h
[4] = 20 μM APE, 400 μM TFPP, pH 7.8, 1 h incubation

With allyl Pittsburgh Green ether [APE] the “limit of detection (LOD) for platinum” value [1, 4] was 5.5 nM, the “limit of quantification (LOQ) for platinum” value [1, 4] was 18.3 nM and the “percent recoveries of unknown platinum samples” value ([1]; double-blind, 4 of 6 samples) was 90-115%.

For Propargyl Pittsburgh Green ether [PPE], the “limit of detection (LOD) for copper” value [2] was 4.5 nM and the “limit of quantification (LOQ) for copper” value [2] was 15.1 nM.

In the case of `N.N.[Cl][Pt][Cl]` [cisplatin], the “LOD of cisplatin in serum” value [3] is reported as 120 nM and the “LOQ of cisplatin in serum” value [3] is reported as 410 nM.
